Data as given in PubChem BioAssay AID1259308 (NCATS, 2017)
The whole screen tested about 59,000 reagents; this is a random part of them. About 1,510 of them (2.6%) were called active. 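Calls use total luciferase alone and ignore viability, so some active siRNAs may act by altering cell number.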 The numbers tell different reagents against one gene apart. Further read-outs or replicates are left out here.

Test: 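Genes whose loss raises luciferase production in HEK293 cells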 (primary screen)
Cell system: human HEK293 embryonic kidney cells stably expressing firefly luciferase (HEK-CMV-Luc2-Hygro)
Knock-down reagent: single siRNA against human genes, 0.8 pmol siRNA per well
Time to read-out: 72 h
Detection: 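Luciferase light (ONE-Glo) measured on one replicate plate set and viability (CellTiter-Glo) on the other, scaled to a negative control siRNA, with robust z-scores and luciferase per cell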
Reading the numbers: total luciferase, z-score: higher = more reporter protein produced
Active means: 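An siRNA counts as active if its total luciferase robust z-score exceeds 3; genes with two or more such siRNAs out of three were retested with fresh siRNAs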
Calls: active = raised luciferase; inactive = no rise

| Target gene | siRNA no. | total luciferase, z-score | outcome |
| --- | --- | --- | --- |
| LINC00636 (long independently transcribed non-coding RNA 636) | 1 | 0.074 | inactive |
| LINC00636 (long independently transcribed non-coding RNA 636) | 2 | 0.587 | inactive |
| LINC00636 (long independently transcribed non-coding RNA 636) | 3 | -0.573 | inactive |
| MMP1 (matrix metallopeptidase 1) | 1 | -0.576 | inactive |
| MMP1 (matrix metallopeptidase 1) | 2 | 3.4 | active |
| MMP1 (matrix metallopeptidase 1) | 3 | 0.343 | inactive |
| SRC (SRC proto-oncogene, non-receptor tyrosine kinase) | 1 | 0.73 | inactive |
| SRC (SRC proto-oncogene, non-receptor tyrosine kinase) | 2 | -1.5 | inactive |
| SRC (SRC proto-oncogene, non-receptor tyrosine kinase) | 3 | 2.17 | inactive |

Part of the list above, set out differently.
SRC (SRC proto-oncogene, non-receptor tyrosine kinase) #1
- total luciferase, z-score: 0.73
- outcome: inactive

SRC (SRC proto-oncogene, non-receptor tyrosine kinase) #2
- total luciferase, z-score: -1.5
- outcome: inactive

SRC (SRC proto-oncogene, non-receptor tyrosine kinase) #3
- total luciferase, z-score: 2.17
- outcome: inactive

Next results:
| Target gene | siRNA no. | total luciferase, z-score | outcome |
| --- | --- | --- | --- |
| MAGED1 (MAGE family member D1) | 1 | -0.0946 | inactive |
| MAGED1 (MAGE family member D1) | 2 | 0.0478 | inactive |
| MAGED1 (MAGE family member D1) | 3 | -1.93 | inactive |
| PPEF2 (protein phosphatase with EF-hand domain 2) | 1 | 0.671 | inactive |
| PPEF2 (protein phosphatase with EF-hand domain 2) | 2 | 0.884 | inactive |
| PPEF2 (protein phosphatase with EF-hand domain 2) | 3 | -0.64 | inactive |
| OMA1 (OMA1 zinc metallopeptidase) | 1 | -1.45 | inactive |
| OMA1 (OMA1 zinc metallopeptidase) | 2 | -2.12 | inactive |
| OMA1 (OMA1 zinc metallopeptidase) | 3 | 0.0526 | inactive |
| GSR (glutathione-disulfide reductase) | 1 | -0.312 | inactive |
| GSR (glutathione-disulfide reductase) | 2 | 1.07 | inactive |
| GSR (glutathione-disulfide reductase) | 3 | -1.53 | inactive |
| NBEA (neurobeachin) | 1 | 0.399 | inactive |
| NBEA (neurobeachin) | 2 | -0.752 | inactive |
| NBEA (neurobeachin) | 3 | -0.107 | inactive |
